No constants are given. Whether binding was seen depends on the method and setting. In cells and extracts the contact can be indirect. These calls come from enrichment with a bait or labelling near it, and not all partners need be listed.
Molecular target: N-terminal TurboID-MAFG fusion (human) (UniProt O15525)
Test: proximity labelling; TurboID-MAFG versus TurboID-NLS control in WM164 cells, 50 µM biotin for 10 min at 37 °C; RIPA lysate on Streptavidin Sepharose beads, on-bead digestion, label-free LC-MS/MS, n = 3 each

Protein sequences, listed by entry. Tags and fused reporters are not part of them. Residues count along the entry.
UniProt O15525: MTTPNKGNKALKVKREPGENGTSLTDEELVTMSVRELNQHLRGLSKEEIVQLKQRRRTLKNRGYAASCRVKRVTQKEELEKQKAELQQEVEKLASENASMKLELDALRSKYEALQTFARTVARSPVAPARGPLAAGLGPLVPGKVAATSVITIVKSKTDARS
UniProt Q9BYV9: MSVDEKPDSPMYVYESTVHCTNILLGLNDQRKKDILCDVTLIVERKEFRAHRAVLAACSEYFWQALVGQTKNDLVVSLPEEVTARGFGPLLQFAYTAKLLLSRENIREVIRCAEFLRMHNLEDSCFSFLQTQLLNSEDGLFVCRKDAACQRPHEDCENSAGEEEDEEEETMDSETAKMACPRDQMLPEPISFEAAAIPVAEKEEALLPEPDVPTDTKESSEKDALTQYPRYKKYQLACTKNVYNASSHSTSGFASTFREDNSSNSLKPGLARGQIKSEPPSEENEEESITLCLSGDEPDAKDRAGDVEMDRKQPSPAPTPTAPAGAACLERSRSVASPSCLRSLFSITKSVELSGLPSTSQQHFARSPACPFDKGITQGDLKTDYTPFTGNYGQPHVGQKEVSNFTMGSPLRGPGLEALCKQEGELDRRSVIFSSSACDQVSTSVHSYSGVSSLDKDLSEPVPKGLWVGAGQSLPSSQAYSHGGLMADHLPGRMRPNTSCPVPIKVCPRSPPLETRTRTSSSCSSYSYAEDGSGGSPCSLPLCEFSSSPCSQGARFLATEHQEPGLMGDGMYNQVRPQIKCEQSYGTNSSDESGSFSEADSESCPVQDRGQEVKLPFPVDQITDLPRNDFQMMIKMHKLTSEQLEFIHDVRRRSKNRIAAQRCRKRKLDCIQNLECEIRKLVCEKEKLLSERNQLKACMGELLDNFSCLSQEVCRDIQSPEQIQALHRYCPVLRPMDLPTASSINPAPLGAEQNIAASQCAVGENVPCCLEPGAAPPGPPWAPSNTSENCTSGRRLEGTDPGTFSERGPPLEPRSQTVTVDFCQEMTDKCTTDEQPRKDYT
UniProt Q14494, residues 104-772: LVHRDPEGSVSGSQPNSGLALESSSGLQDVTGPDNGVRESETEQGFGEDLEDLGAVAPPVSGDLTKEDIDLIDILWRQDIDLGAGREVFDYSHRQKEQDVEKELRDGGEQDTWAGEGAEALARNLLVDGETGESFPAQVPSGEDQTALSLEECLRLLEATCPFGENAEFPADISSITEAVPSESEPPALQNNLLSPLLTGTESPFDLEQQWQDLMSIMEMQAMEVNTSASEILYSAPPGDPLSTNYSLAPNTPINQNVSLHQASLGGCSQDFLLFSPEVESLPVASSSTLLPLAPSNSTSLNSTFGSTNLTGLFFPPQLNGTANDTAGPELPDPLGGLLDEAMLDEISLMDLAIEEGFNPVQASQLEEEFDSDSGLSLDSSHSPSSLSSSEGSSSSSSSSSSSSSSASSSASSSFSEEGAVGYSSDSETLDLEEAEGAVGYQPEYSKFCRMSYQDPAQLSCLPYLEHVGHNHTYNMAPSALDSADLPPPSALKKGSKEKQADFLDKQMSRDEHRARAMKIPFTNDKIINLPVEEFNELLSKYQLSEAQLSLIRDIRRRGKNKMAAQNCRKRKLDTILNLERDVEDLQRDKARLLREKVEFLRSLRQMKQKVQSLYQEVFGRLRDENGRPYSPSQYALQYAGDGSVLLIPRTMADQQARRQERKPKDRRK
UniProt Q9ULX9: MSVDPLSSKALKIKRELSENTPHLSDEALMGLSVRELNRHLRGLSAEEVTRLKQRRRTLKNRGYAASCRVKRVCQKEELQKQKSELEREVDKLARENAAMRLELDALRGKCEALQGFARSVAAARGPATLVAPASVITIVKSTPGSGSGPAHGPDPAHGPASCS

Substance | binding
BACH2, endogenous (from UniProt Q9BYV9 1-841) | binds
NRF1, endogenous (from UniProt Q14494 104-772) | binds
MAFF, endogenous (from UniProt Q9ULX9 1-164) | binds

Source: paper PMC13385793
